# From the supplement of paper PMC5393889
# The list shows a part of the results.
# Tested on: Caenorhabditis elegans N2
# Assay: aldicarb interaction hit call (worm growth perturbed in combination with 10 uM aldicarb in both replicates, no effect as single agent) (binary (1 = interacts)); higher = interacts with aldicarb (growth perturbed)
# Conditions: first compound 1.5 µM; aldicarb concentration 10 µM; 6 days; 20 °C
row,SMILES,aldicarb interaction hit call
1,O=[N+]([O-])c1cc(C(F)(F)F)ccc1NCc1cccnc1 [wact-417] + CNC(=O)O/N=C/C(C)(C)SC [aldicarb],inactive: 0
2,CCc1ccc(C(=O)Nc2ccccc2Cl)cc1 [wact-560] + CNC(=O)O/N=C/C(C)(C)SC [aldicarb],inactive: 0
3,O=C(c1ccc(-c2ccccc2)cc1)N1CCC(c2ccccc2)C1 (stereo not drawn) [wact-101] + CNC(=O)O/N=C/C(C)(C)SC [aldicarb],inactive: 0
4,Clc1ccc(-c2nc(-c3cccs3)no2)c(Cl)c1 [wact-169] + CNC(=O)O/N=C/C(C)(C)SC [aldicarb],inactive: 0
5,OCc1ccc(OCc2ccc(I)cc2)cc1 [wact-505] + CNC(=O)O/N=C/C(C)(C)SC [aldicarb],inactive: 0
6,CCC(C(=O)N1CCN(c2ccc([N+](=O)[O-])cc2)CC1)c1ccccc1 (stereo not drawn) [wact-50] + CNC(=O)O/N=C/C(C)(C)SC [aldicarb],inactive: 0
7,Cc1csc2nc3ccccc3c(=O)n12 [wact-618] + CNC(=O)O/N=C/C(C)(C)SC [aldicarb],inactive: 0
8,Cl.OCCNCc1ccc(OCc2ccc(Cl)cc2Cl)cc1 [wact-97] + CNC(=O)O/N=C/C(C)(C)SC [aldicarb],inactive: 0
9,C=CCSc1nnc(-c2ccc(Cl)cc2Cl)o1 [wact-5] + CNC(=O)O/N=C/C(C)(C)SC [aldicarb],inactive: 0
10,CNCc1ccc(-c2cc(Cl)cc(Cl)c2)o1 [wact-196] + CNC(=O)O/N=C/C(C)(C)SC [aldicarb],inactive: 0
11,O=C(Nc1ccc(Cl)cc1)c1cccs1 [wact-380] + CNC(=O)O/N=C/C(C)(C)SC [aldicarb],inactive: 0
12,C=CCOc1ccc(NC(=O)c2ccccc2Br)cc1 [wact-569] + CNC(=O)O/N=C/C(C)(C)SC [aldicarb],inactive: 0
13,Clc1ccc(CSc2ncccn2)cc1 [wact-74] + CNC(=O)O/N=C/C(C)(C)SC [aldicarb],inactive: 0
14,C#Cc1cccc(NC(=O)c2ccc(Cl)c(S(=O)(=O)N3CCN(c4ccc(F)cc4)CC3)c2)c1 [wact-350] + CNC(=O)O/N=C/C(C)(C)SC [aldicarb],inactive: 0
15,O=C(Nc1ccc(N2CCOCC2)c(Cl)c1)c1ccc(-c2ccc(F)cc2)o1 [wact-61] + CNC(=O)O/N=C/C(C)(C)SC [aldicarb],active: 1
16,Fc1ccc(CNC(=S)Nc2cnn(Cc3ccc(Br)cc3)c2)cc1 [wact-114] + CNC(=O)O/N=C/C(C)(C)SC [aldicarb],inactive: 0
17,FC(F)(F)c1cccc(-c2noc(-c3cccs3)n2)c1 [wact-180] + CNC(=O)O/N=C/C(C)(C)SC [aldicarb],inactive: 0
18,CCOc1ccc(/C=C/[N+](=O)[O-])cc1 [wact-385] + CNC(=O)O/N=C/C(C)(C)SC [aldicarb],inactive: 0
19,Fc1cccc(NC2CCCN(Cc3cnn(-c4ccccc4)c3)C2)c1 (stereo not drawn) [wact-274] + CNC(=O)O/N=C/C(C)(C)SC [aldicarb],inactive: 0

# Eight entries from above in a different format.
row | SMILES | aldicarb interaction hit call
10 | CNCc1ccc(-c2cc(Cl)cc(Cl)c2)o1 [wact-196] + CNC(=O)O/N=C/C(C)(C)SC [aldicarb] | inactive: 0
11 | O=C(Nc1ccc(Cl)cc1)c1cccs1 [wact-380] + CNC(=O)O/N=C/C(C)(C)SC [aldicarb] | inactive: 0
12 | C=CCOc1ccc(NC(=O)c2ccccc2Br)cc1 [wact-569] + CNC(=O)O/N=C/C(C)(C)SC [aldicarb] | inactive: 0
13 | Clc1ccc(CSc2ncccn2)cc1 [wact-74] + CNC(=O)O/N=C/C(C)(C)SC [aldicarb] | inactive: 0
14 | C#Cc1cccc(NC(=O)c2ccc(Cl)c(S(=O)(=O)N3CCN(c4ccc(F)cc4)CC3)c2)c1 [wact-350] + CNC(=O)O/N=C/C(C)(C)SC [aldicarb] | inactive: 0
15 | O=C(Nc1ccc(N2CCOCC2)c(Cl)c1)c1ccc(-c2ccc(F)cc2)o1 [wact-61] + CNC(=O)O/N=C/C(C)(C)SC [aldicarb] | active: 1
16 | Fc1ccc(CNC(=S)Nc2cnn(Cc3ccc(Br)cc3)c2)cc1 [wact-114] + CNC(=O)O/N=C/C(C)(C)SC [aldicarb] | inactive: 0
17 | FC(F)(F)c1cccc(-c2noc(-c3cccs3)n2)c1 [wact-180] + CNC(=O)O/N=C/C(C)(C)SC [aldicarb] | inactive: 0

# Further entries follow:

row,SMILES,aldicarb interaction hit call
1,Cc1oc(-c2cccc(Cl)c2)nc1CN1CCC(c2ccncc2)CC1 [wact-276] + CNC(=O)O/N=C/C(C)(C)SC [aldicarb],inactive: 0
2,COc1cc(CNCc2cccnc2)ccc1OCc1ccc(Cl)cc1Cl.Cl [wact-531] + CNC(=O)O/N=C/C(C)(C)SC [aldicarb],inactive: 0
3,O=C(c1ccc(Cl)cc1)N1CCN(Cc2ccc(Cl)cc2)CC1 [wact-229] + CNC(=O)O/N=C/C(C)(C)SC [aldicarb],inactive: 0
4,CC(C)COc1ccc(-c2nc(-c3ccncc3)no2)cc1 [wact-561] + CNC(=O)O/N=C/C(C)(C)SC [aldicarb],inactive: 0
5,Clc1ccc(-c2ncc(CN3CCCC(N4CCCC4)C3)cn2)cc1 (stereo not drawn) [wact-325] + CNC(=O)O/N=C/C(C)(C)SC [aldicarb],inactive: 0
6,O=C(Nc1ccc(OC(F)F)cc1)Nc1cccc(C(F)(F)F)c1 [wact-112] + CNC(=O)O/N=C/C(C)(C)SC [aldicarb],inactive: 0
7,S=C(Nc1ccc(Cl)c(Cl)c1)NC1CCN(Cc2ccccc2)CC1 [wact-107] + CNC(=O)O/N=C/C(C)(C)SC [aldicarb],inactive: 0
8,Clc1ccc(Br)cc1-c1nc(-c2ccncc2)no1 [wact-106] + CNC(=O)O/N=C/C(C)(C)SC [aldicarb],active: 1
9,COc1ccc(-c2noc(-c3cccc(C)c3)n2)cc1 [wact-13] + CNC(=O)O/N=C/C(C)(C)SC [aldicarb],inactive: 0
10,CN(Cc1cccc(F)c1F)CC1CCN(CCc2ccc(F)cc2)CC1 [wact-292] + CNC(=O)O/N=C/C(C)(C)SC [aldicarb],inactive: 0
11,O=C(c1cc(COc2ccc3ncccc3c2)on1)N1C[C@H]2CC[C@H]1C2 [wact-290] + CNC(=O)O/N=C/C(C)(C)SC [aldicarb],inactive: 0
12,O=C(NC(=S)Nc1cccc(C(F)(F)F)c1)c1ccccc1F [wact-463] + CNC(=O)O/N=C/C(C)(C)SC [aldicarb],inactive: 0
13,Nc1nc(SC(c2ccccc2)c2ccc(Cl)cc2)ns1 (stereo not drawn) [wact-126] + CNC(=O)O/N=C/C(C)(C)SC [aldicarb],inactive: 0
14,Clc1ccc(N2CCN(Cc3cccc(Cl)c3)CC2)cc1 [wact-216] + CNC(=O)O/N=C/C(C)(C)SC [aldicarb],inactive: 0
15,COc1ccc(/C=N/c2ccc(-c3nc4ccc(C)cc4s3)cc2)cc1 [wact-375] + CNC(=O)O/N=C/C(C)(C)SC [aldicarb],inactive: 0
16,Cc1cccc(-c2nc(-c3ccccc3)no2)c1 [wact-506] + CNC(=O)O/N=C/C(C)(C)SC [aldicarb],inactive: 0
17,CCCCCNC(=O)c1ccccc1SC [wact-127] + CNC(=O)O/N=C/C(C)(C)SC [aldicarb],inactive: 0
18,CCOC(=O)C1CCN(CCOc2ccc(Cl)cc2C)CC1.Cl [wact-160] + CNC(=O)O/N=C/C(C)(C)SC [aldicarb],inactive: 0
19,CCCc1nc(-c2ccc(-c3ccc(F)cc3)cc2)no1 [wact-390] + CNC(=O)O/N=C/C(C)(C)SC [aldicarb],active: 1
